The record followed here is publication PMC11995267.

Residue numbers refer to the chain shown, from its start. Numbers in names are those of the source. These are yes or no findings as the source states them, for the method shown. In cells and extracts the contact can be indirect. Some binding calls cover weakened binding; strength is not graded here. Tags and fused reporters may be left off the sequences shown.

First the molecules themselves.
T1: Elp1-c-Myc (S. cerevisiae) (UniProt Q06706)
T1 sequence: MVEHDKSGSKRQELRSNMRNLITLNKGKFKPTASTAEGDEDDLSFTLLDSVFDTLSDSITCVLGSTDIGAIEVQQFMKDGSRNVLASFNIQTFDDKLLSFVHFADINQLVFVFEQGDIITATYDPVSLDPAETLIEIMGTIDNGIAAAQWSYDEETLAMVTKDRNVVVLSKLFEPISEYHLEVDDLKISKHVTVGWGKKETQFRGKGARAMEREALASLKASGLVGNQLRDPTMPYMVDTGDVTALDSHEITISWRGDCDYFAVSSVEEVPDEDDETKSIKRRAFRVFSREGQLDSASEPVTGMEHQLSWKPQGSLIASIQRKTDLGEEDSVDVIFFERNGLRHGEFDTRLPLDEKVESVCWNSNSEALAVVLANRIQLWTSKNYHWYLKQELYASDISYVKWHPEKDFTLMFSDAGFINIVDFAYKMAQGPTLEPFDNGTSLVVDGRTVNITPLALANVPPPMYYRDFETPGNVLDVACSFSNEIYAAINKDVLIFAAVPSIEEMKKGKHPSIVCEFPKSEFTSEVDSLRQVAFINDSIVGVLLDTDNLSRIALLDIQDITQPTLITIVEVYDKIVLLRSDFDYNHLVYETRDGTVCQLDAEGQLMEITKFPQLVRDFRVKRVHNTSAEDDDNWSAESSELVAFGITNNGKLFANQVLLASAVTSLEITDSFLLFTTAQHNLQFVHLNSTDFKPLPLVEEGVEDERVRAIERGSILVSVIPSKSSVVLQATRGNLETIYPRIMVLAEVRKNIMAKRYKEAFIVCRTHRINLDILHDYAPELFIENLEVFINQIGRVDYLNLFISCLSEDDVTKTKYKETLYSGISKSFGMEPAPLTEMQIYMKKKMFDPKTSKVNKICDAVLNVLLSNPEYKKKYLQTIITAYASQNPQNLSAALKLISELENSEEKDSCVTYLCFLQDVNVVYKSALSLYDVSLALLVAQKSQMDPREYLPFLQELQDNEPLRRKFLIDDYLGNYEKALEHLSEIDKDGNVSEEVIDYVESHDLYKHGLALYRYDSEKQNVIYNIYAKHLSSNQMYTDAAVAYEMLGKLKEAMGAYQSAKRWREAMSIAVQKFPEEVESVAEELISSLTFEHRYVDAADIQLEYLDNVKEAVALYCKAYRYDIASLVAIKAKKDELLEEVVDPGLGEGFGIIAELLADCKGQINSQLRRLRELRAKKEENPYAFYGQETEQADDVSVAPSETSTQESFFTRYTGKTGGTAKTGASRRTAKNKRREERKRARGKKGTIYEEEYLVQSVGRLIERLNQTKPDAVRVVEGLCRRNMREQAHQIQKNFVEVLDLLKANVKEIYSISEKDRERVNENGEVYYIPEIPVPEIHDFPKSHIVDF

B1: recombinant Kti12 (wild type), His-tagged (protein, UniProt P34253 1-313)
chain: MPLVLFTGYPCSGKTTLAKHLVQLLQSKIDATPSLSKYSITYHSDESLGIKHSDYITSQDERKLRSEIISAVKRDLSKNKIVIVDSLNYIKGFRYQLHCEVKNLSTTFCVIQTLCPPETIFEWNKTSNPNPWEPELLNQLIQRYEEPNSSNRWDSPLFAILTPQDNITDYIDDICKVVFQTSKSAKNSGHNDPLSKGLQKPNSATVLKPASQSNFIQVLDIETSKIIKTIMNHIKSLTSIGGVSNGTRVIVSEGITDINDDGCFFVDLPIGNVVTLAQLQRLKRQFINFNKLRDIDQDRIGPLFADYLNKNLN
B2: Kti12-HA (wild type) (protein, UniProt P34253 1-313)
chain: B1 chain
B3: Kti12-HA R284A (protein, UniProt P34253 1-313)
chain: B1 chain with R284A
B4: Kti12-HA K235A (protein, UniProt P34253 1-313)
chain: B1 chain with K235A
B5: Kti12-HA K283A (protein, UniProt P34253 1-313)
chain: B1 chain with K283A
B6: Kti12-HA K225A (protein, UniProt P34253 1-313)
chain: B1 chain with K225A
B7: Kti12-HA R281A (protein, UniProt P34253 1-313)
chain: B1 chain with R281A
B8: Kti12-HA K228A (protein, UniProt P34253 1-313)
chain: B1 chain with K228A
B9: Kti12-HA S224R (protein, UniProt P34253 1-313)
chain: B1 chain with S224R
B10: Kti12-HA D220A (protein, UniProt P34253 1-313)
chain: B1 chain with D220A

One test concerns the target T1, Elp1-c-Myc (S. cerevisiae). As to the kind of experiment: pull-down; Elp1-c-Myc immune-precipitated from kti12Δ extract and held on beads; 5 μM recombinant Kti12 pre-incubated mock or with 2 mM ATP, ADP or AppNHp, with or without 3 μM bulk yeast tRNA; IPP100 buffer, 60 min at 4°C; Western blot; only the binder purified. Background: Immunoblotting shows a protein as a band on a membrane.
As for B1, the binding entry is listed as “binds”.

The next test concerns the target T1, Elp1-c-Myc (S. cerevisiae). As to the kind of experiment: co-IP; Elp1-c-Myc immobilised on antibody-coupled Dynabeads; 8 mg total yeast protein in B60 buffer (50 mM HEPES-KOH pH 7.3, 60 mM KOAc), 4°C overnight; Kti12-HA detected by Western blot.
In the case of B2, the binding entry was “binds”.

Regarding B3, the binding entry is reported as “binds”.

On to B4, for which the binding result was “binds”.

Turning to B5, the binding result is reported as “binds”.

Consider B6, for which the binding result is recorded as “binds”.

Take B7: the binding result was “binds”.

Regarding B8, the binding entry was “binds”.

On to B9, for which the binding result is “binds”.

Consider B10, for which the binding result is on record as “binds”.

Another test concerns the target T1, Elp1-c-Myc (S. cerevisiae). As to the kind of experiment: co-IP; first step of a sequential IP: 10 mg extract in IPP100 buffer (10 mM Tris-HCl pH 8.0, 100 mM NaCl) with anti-c-Myc Dynabeads, 30 min at room temperature, washed with IPP300 (300 mM NaCl); with or without UV irradiation; Western blot.
For B2, the binding result is on record as “binds”.
